# Test results taken from PMC5150223.
# The chains behind the UniProt entries cited, without tags or fusion partners. Residues count along the entry.
# UniProt P17181, residues 28-557: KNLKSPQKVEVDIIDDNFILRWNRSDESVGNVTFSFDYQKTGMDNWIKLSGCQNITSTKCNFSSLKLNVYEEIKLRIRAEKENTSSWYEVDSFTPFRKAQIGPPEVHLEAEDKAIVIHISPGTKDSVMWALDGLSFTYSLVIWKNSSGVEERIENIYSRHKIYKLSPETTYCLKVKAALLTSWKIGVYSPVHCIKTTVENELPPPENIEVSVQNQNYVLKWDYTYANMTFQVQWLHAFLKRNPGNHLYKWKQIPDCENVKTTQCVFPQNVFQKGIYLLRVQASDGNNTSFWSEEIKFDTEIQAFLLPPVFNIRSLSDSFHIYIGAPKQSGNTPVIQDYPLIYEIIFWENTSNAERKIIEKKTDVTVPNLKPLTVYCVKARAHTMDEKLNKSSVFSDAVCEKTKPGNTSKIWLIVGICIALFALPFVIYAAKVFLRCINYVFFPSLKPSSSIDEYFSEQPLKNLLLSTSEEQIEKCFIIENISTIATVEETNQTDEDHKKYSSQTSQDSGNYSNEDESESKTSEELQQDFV
# Results are given in words; binding and its absence hold for the method and conditions named. In cells and extracts the contact can be indirect. Some results given as binding are weak or reduced against the parent protein; the word gives no strength.
# Target: T1, type-I interferon (IFN-α/β) receptor subunit IFNAR2 (human (endogenous in RPE1)) (UniProt P48551)
# T1 sequence: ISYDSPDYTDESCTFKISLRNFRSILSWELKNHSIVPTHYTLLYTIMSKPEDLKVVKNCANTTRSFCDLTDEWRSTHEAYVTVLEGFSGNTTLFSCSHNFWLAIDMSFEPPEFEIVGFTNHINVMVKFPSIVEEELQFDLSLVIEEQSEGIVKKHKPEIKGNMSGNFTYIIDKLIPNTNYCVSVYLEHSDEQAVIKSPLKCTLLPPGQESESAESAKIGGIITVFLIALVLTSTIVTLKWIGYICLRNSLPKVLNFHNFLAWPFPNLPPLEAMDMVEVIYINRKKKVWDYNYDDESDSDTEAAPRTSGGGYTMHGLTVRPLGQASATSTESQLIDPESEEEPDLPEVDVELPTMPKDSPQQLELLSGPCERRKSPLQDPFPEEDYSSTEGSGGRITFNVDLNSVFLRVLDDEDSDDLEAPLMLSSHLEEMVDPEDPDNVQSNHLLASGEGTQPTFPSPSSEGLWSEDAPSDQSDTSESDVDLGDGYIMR
# Experiment: proximity ligation; in situ PLA in RPE1 cells; anti-IFNAR1 or anti-IFNAR2 antibody bound on ice, IFN-α at 37 °C for the indicated times, cells fixed and permeabilised; control and VPS35-depleted cells
substance,measurement,value
type-I interferon (IFN-α/β) receptor subunit IFNAR1 (from UniProt P17181 28-557),binding,binds
